Experimental data published in PubChem BioAssay AID330 (DTP/NCI, 2004).
The list shows only some results of the screen, not a fair sample: it is rich in T/C values a quarter to a half above the control, in often repeated tests (any T/C) and in doses without a T/C. Other doses and runs of a compound stand elsewhere. T/C: endpoint of the treated group in % of that of the vehicle group. Some entries give survivors of the animals treated and no T/C: the source files T/C as zero there, which appears to mark a toxic dose or a test without result, not a measured value. Some doses without a T/C left all or most animals alive at the check, yet need not have been tolerated: the source hardly ever lists a survival T/C far under the control, and the zero likely stands for such cases as well. Counts of survivors are from the toxicity check (mostly the fifth day) where no day follows; animals may have died later. Schedule codes are those of the source, read here as Q, the interval in days (D) or hours (H), X, the number of doses. Additions like (4×) stand for listed records that agree. Some doses were run more than once; their values stand side by side, smallest first. Where survival is the endpoint, this PubChem deposit counts one and a half times the control or more as active, and values a quarter to a half above the control carry no call in these data; other NCI protocols may use other cut-offs. Some T/C values carry the count of animals alive at the toxicity check (mostly the fifth day); without a count, all were alive then.

Test system: P388 leukemia ip, CD2F1 mice, survival T/C
Assay: NCI In Vivo Anticancer Drug Screen. Data for tumor model P388 Leukemia (intraperitoneal) in CD2F1 (CDF1) mice
Conditions: T/C endpoint: median survival time, higher T/C = longer survival
[1] = dose: 100.0 mg/kg/injection, schedule: Q01DX009 (ip), vehicle: saline with Tween-80
[2] = dose: 200.0 mg/kg/injection, schedule: Q01DX009 (ip), vehicle: saline with Tween-80
[3] = dose: 120.0 mg/kg/injection, schedule: Q01DX005 (ip), vehicle: Klucel (hydroxypropylcellulose) (HPC)
[4] = dose: 240.0 mg/kg/injection, schedule: Q01DX005 (ip), vehicle: Klucel (hydroxypropylcellulose) (HPC)
[5] = dose: 200.0 mg/kg/injection, schedule: Q01DX005 (ip), vehicle: saline with Tween-80
[6] = dose: 50.0 mg/kg/injection, schedule: Q01DX009 (ip), vehicle: saline with Tween-80
[7] = dose: 200.0 mg/kg/injection, schedule: Q04DX003 (ip), vehicle: saline with Tween-80
[8] = dose: 400.0 mg/kg/injection, schedule: Q04DX003 (ip), vehicle: saline with Tween-80
[9] = dose: 0.15 mg/kg/injection, schedule: Q01DX009 (ip), vehicle: Klucel (hydroxypropylcellulose) (HPC)

COc1cccc2c1C(=O)c1c(O)c3c(c(O)c1C2=O)C[C@@](O)(C(O)CO)C[C@@H]3OC1CC(NC(=O)C(F)(F)F)C(O)C(C)O1 (stereo partly specified)
T/C (dose: 1.56 mg/kg/injection, schedule: Q01DX009 (ip), vehicle: other): 128 and 130 % of control | T/C (dose: 6.25 mg/kg/injection, schedule: Q01DX009 (ip), vehicle: other): 138 and 142 % of control | T/C (dose: 12.5 mg/kg/injection, schedule: Q01DX009 (ip), vehicle: other): 142 and 149 % of control

CC1CC2OC(=O)CC2C(O)C2(C)C(OC(C)(C)C)CCC12 (stereo unspecified)
survivor count (dose: 200.0 mg/kg/injection, schedule: Q01DX005 (ip), vehicle: Klucel (hydroxypropylcellulose) (HPC)): 5 of 6

COc1ccc(OC)c(CC(C)N)c1 (stereo unspecified)
survivor count (dose: 240.0 mg/kg/injection, schedule: Q01DX005 (ip), vehicle: saline): 0 of 6

C=C[Si](C)(C)c1ccc([Si](C)(C)C=C)cc1
survivor count (dose: 50.0 mg/kg/injection, schedule: Q01DX009 (ip), vehicle: saline): 6 of 6

N=C(N)C(Cl)(Cl)Cl
survivor count [1]: 1 of 6 | survivor count [2]: 0 of 6

CC1(C)N=C(N)N=C(N)N1c1cccc(CNc2ccc(S(N)(=O)=O)cc2)c1
survivor count (dose: 60.0 mg/kg/injection, schedule: Q01DX005 (ip), vehicle: Klucel (hydroxypropylcellulose) (HPC)): 0 of 6 | survivor count [3]: 0 of 6 | survivor count [4]: 0 of 6

CC1CC(C)CC(C)C(O)/C(C#N)=C/C=C/CC(C2CCCC2C(=O)O)OC(=O)CC(O)C(C)C1 (stereo unspecified)
T/C (dose: 0.12 mg/kg/injection, schedule: Q01DX009 (ip), vehicle: saline with Tween-80): 127 % of control | T/C (dose: 0.25 mg/kg/injection, schedule: Q01DX009 (ip), vehicle: Klucel (hydroxypropylcellulose) (HPC)): 140 % of control (2×) | T/C (dose: 0.25 mg/kg/injection, schedule: Q01DX009 (ip), vehicle: saline with Tween-80): 132 % of control | T/C (dose: 0.5 mg/kg/injection, schedule: Q01DX009 (ip), vehicle: saline with Tween-80): 142 % of control | T/C (dose: 0.78 mg/kg/injection, schedule: Q01DX009 (ip), vehicle: Klucel (hydroxypropylcellulose) (HPC)): 129 % of control | T/C (dose: 1.0 mg/kg/injection, schedule: Q01DX009 (ip), vehicle: Klucel (hydroxypropylcellulose) (HPC)): 145 % of control (2×) | T/C (dose: 1.0 mg/kg/injection, schedule: Q01DX009 (ip), vehicle: saline with Tween-80): 142 % of control [5 of 6 alive] | T/C (dose: 1.56 mg/kg/injection, schedule: Q01DX009 (ip), vehicle: Klucel (hydroxypropylcellulose) (HPC)): 147 % of control | survivor count (dose: 2.0 mg/kg/injection, schedule: Q01DX009 (ip), vehicle: Klucel (hydroxypropylcellulose) (HPC)): 3 of 6 | T/C (dose: 2.0 mg/kg/injection, schedule: Q01DX009 (ip), vehicle: saline with Tween-80): 142 % of control | T/C (dose: 3.13 mg/kg/injection, schedule: Q01DX009 (ip), vehicle: Klucel (hydroxypropylcellulose) (HPC)): 136 % of control | survivor count (dose: 4.0 mg/kg/injection, schedule: Q01DX009 (ip), vehicle: Klucel (hydroxypropylcellulose) (HPC)): 0 of 6 and 1 of 6 (3×) | survivor count (dose: 6.25 mg/kg/injection, schedule: Q01DX009 (ip), vehicle: Klucel (hydroxypropylcellulose) (HPC)): 0 of 6 | survivor count (dose: 8.0 mg/kg/injection, schedule: Q01DX009 (ip), vehicle: Klucel (hydroxypropylcellulose) (HPC)): 1 of 6 (3×) | survivor count (dose: 12.5 mg/kg/injection, schedule: Q01DX009 (ip), vehicle: Klucel (hydroxypropylcellulose) (HPC)): 0 of 6 | survivor count (dose: 25.0 mg/kg/injection, schedule: Q01DX009 (ip), vehicle: Klucel (hydroxypropylcellulose) (HPC)): 0 of 6

COC(=O)C1(CC(=O)c2ccc(Cl)cc2Cl)NC(=S)NC(=O)C1C#N (stereo unspecified)
survivor count (dose: 240.0 mg/kg/injection, schedule: Q01DX005 (ip), vehicle: saline with Tween-80): 5 of 6

C=C1C(=O)OC2/C=C(\C)CC/C=C(/C)CC(OC(=O)/C(=C/CO)CO)C12 (stereo unspecified)
T/C (dose: 20.0 mg/kg/injection, schedule: Q01DX009 (ip), vehicle: Klucel (hydroxypropylcellulose) (HPC)): 140 % of control | survivor count (dose: 80.0 mg/kg/injection, schedule: Q01DX009 (ip), vehicle: Klucel (hydroxypropylcellulose) (HPC)): 0 of 6

CCC1COC(CC)N1 (stereo unspecified)
T/C (dose: 100.0 mg/kg/injection, schedule: Q01DX005 (ip), vehicle: saline with Tween-80): 128 % of control | T/C [5]: 128 % of control | survivor count [5]: 0 of 5 | survivor count (dose: 400.0 mg/kg/injection, schedule: Q01DX005 (ip), vehicle: saline with Tween-80): 0 of 5

CCCCOC(=O)/C=C(\Cl)C(=O)OCCCC
T/C [6]: 116, 118 (2×), 120 % of control | survivor count [1]: 3 of 6 | survivor count [2]: 0 of 6

COc1cc2c3cc1Oc1c(O)c(OC)cc4c1[C@H](Cc1ccc(cc1)Oc1cc(ccc1O)C[C@H]3N(C)CC2)N(C)CC4
survivor count (dose: 160.0 mg/kg/injection, schedule: Q01DX009 (ip), vehicle: other): 4 of 6

COc1cc2c(cc1OC)C(=O)Nc1nc(N)nc(N)c1C2
T/C (dose: 400.0 mg/kg/injection, schedule: Q01DX001 (ip), vehicle: saline with Tween-80): 141 % of control

CC(C)Cn1cnc2c(=S)nc(N)[nH]c21
T/C [7]: 131 % of control | T/C [8]: 145 % of control

c1cc2[nH]c3ccncc3c2cn1
survivor count [1]: 0 of 6 | survivor count [2]: 0 of 6

Clc1nnc(-c2ccccc2)s1
survivor count (dose: 200.0 mg/kg/injection, schedule: Q04DX003 (ip), vehicle: Klucel (hydroxypropylcellulose) (HPC)): 0 of 6

Cc1c2oc3c(C)c(N)cc(C(=O)NC4C(=O)NC(C(C)C)C(=O)N5CCCC5C(=O)N(C)CC(=O)N(C)C(C(C)C)C(=O)OC4C)c3nc-2c(C(=O)NC2C(=O)NC(C(C)C)C(=O)N3CCCC3C(=O)N(C)CC(=O)N(C)C(C(C)C)C(=O)OC2C)c(N)c1=O (stereo unspecified)
T/C (dose: 0.04 mg/kg/injection, schedule: Q01DX009 (ip), vehicle: Klucel (hydroxypropylcellulose) (HPC)): 140 % of control | T/C (dose: 0.08 mg/kg/injection, schedule: Q01DX009 (ip), vehicle: Klucel (hydroxypropylcellulose) (HPC)): 130 % of control | T/C [9]: 135 % of control | survivor count [9]: 6 of 6 | survivor count (dose: 0.3 mg/kg/injection, schedule: Q01DX009 (ip), vehicle: Klucel (hydroxypropylcellulose) (HPC)): 1 of 6 | survivor count (dose: 0.6 mg/kg/injection, schedule: Q01DX009 (ip), vehicle: Klucel (hydroxypropylcellulose) (HPC)): 0 of 6

CCC/C(=N\NC(N)=NC)c1ccc(Cl)cc1
survivor count (dose: 100.0 mg/kg/injection, schedule: Q04DX002 (ip), vehicle: saline): 1 of 6

C#CC(O)C1CC1 (stereo unspecified)
survivor count (dose: 200.0 mg/kg/injection, schedule: Q01DX001 (ip), vehicle: saline + Tween-80 + alcohol): 1 of 6 | survivor count (dose: 400.0 mg/kg/injection, schedule: Q01DX001 (ip), vehicle: saline + Tween-80 + alcohol): 0 of 6

Cc1nc(-c2ccccc2-n2cccc2)no1
survivor count [2]: 2 of 6

C1COCCOCCNCCOCCOCCN1
survivor count (dose: 200.0 mg/kg/injection, schedule: Q01DX005 (ip), vehicle: saline): 0 of 5

COc1cc(-c2coc3c4c(ccc3c2=O)OC(C)(C)C=C4)c(OC)c2c1OCO2
T/C (dose: 80.0 mg/kg/injection, schedule: Q01DX009 (ip), vehicle: other): 145 % of control

O=C(O)c1cc(C(=O)CC(=O)c2cc(C(=O)O)c(O)c3ccccc23)c2ccccc2c1O
survivor count [2]: 0 of 6

O=[n+]1ccn([O-])c2ccccc21.[Mn].[O-][Cl+3]([O-])([O-])O
T/C [7]: 134 % of control | survivor count [8]: 0 of 6

CCCCOCN(CCc1ccccc1)COCCCC
T/C [6]: 133 % of control | T/C [1]: 133 and 149 % of control | T/C [2]: 125 % of control | survivor count (dose: 400.0 mg/kg/injection, schedule: Q01DX009 (ip), vehicle: saline with Tween-80): 3 of 6

NNc1nnnc2c1sc1ccccc12
survivor count (dose: 200.0 mg/kg/injection, schedule: Q01DX001 (ip), vehicle: saline with Tween-80): 6 of 6

Oc1cc2cccc[n+]2c2ccccc12
survivor count [3]: 0 of 6 | survivor count [4]: 0 of 6
